Inconclusive means that the source gave no clear call. Such entries were picked first, then a sample of the others. Potencies beside an inconclusive call are fits to weak or partial responses and may not hold up. Activity calls are given as the source filed them. Calls follow the shape of the dose curve; as a rule, active = well fitted activation curve with a large enough effect; inconclusive = small, poorly fitted or top-dose-only effect; inactive = flat fitted curve, though single readings scatter.
Assay: Cell Proliferation Assay against the TMD8 Cell Line (Caspase readout at 16 hrs) (AID 651712)
Settings: TMD8 lymphoma cells, caspase activation luminescence; series mostly up to 46.1 µM
How it was run: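 Apoptotic response of TMD8 cells was judged from caspase 3/7 activation following a 16 hour compound incubation at 37 °C. Luminescent signal was converted to percent activity, with DMSO set as 0% and 9.2 uM final bortezomib as 100%.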
Potency is read from the fitted curve at half-maximal effect.

Compound | Potency
Cc1cccc(C#Cc2ccccc2)n1 | inactive
Cc1nc(N)sc1-c1ccnc(Nc2ccc(N3CCOCC3)cc2)n1 | inconclusive: 1.66 µM [activator, full curve]
CC(O)=C(C#N)C(=O)Nc1ccc(C(F)(F)F)cc1 | inactive
CN(C)c1ccc(Nc2nc(N)n(C(=O)c3c(F)cccc3F)n2)cc1 | inconclusive: 26.4 µM [activator, single point]
O=C(O)Cc1cccc(OCCCN(Cc2cccc(C(F)(F)F)c2Cl)CC(c2ccccc2)c2ccccc2)c1 | inconclusive: 29.6 µM [activator, single point]
OCCC#Cc1nc(-c2ccc(F)cc2)c(-c2ccncc2)n1CCCc1ccccc1 | inconclusive: 18.7 µM [activator, partial curve]
COc1cc2nc(-c3ccc(N4CCN(C)CC4)cc3)nc(NCCN3CCOCC3)c2cc1OC | inconclusive: 18.7 µM [activator, partial curve]
